Reference: the supplement of paper PMC7238544
Counter-ions that a name gives are not always drawn. ± gives the standard deviation of the averaged measurements. The list shows a part of the results. The data scatter; read single values as rough.

tested on: hAMSC donor 1; experiment: transfection efficiency (EGFP+ cells / Hoechst count) fold change vs vehicle control (ratio); hAMSC are human adipose-derived mesenchymal stem cells given an EGFP-luciferase plasmid by lipofection; higher = enhanced transfection; conditions: priming compound concentration 0.2 µM

Compound | transfection efficiency
COC(=O)N1CCN(C(=O)Cc2ccc(Cl)c(Cl)c2)C(CN2CCCC2)C1 (configuration not stated) | 0.79 ± 0.29
c1ccc(Cn2ccnc2)cc1 [Benzylimidazole] | 1.03 ± 0.14
O=C1CN=C(c2ccccc2)c2cc([N+](=O)[O-])ccc2N1 [Nitrazepam] | 1.01 ± 0.29
C[C@]12CC[C@H](O)CC1=CC[C@@H]1[C@@H]2CC[C@]2(C)C(=O)CC[C@@H]12 [Dehydroepiandrosterone] | 0.893 ± 0.3
O=C1CC[C@@]2(O)[C@H]3Cc4ccc(O)c5c4[C@@]2(CCN3CC2CC2)[C@H]1O5 [Naltrexone hydrochloride] | 0.924 ± 0.28
N=C(NCc1ccc(Cl)cc1)SCCCc1c[nH]cn1 [Clobenpropit] | 1.57 ± 0.56
C=C(C)[C@@H]1[C@H]2OC(=O)[C@@H]1[C@]1(O)C[C@H]3O[C@]34C(=O)O[C@H]2[C@]14C.CC(C)(O)[C@@H]1[C@H]2OC(=O)[C@@H]1[C@]1(O)C[C@H]3O[C@]34C(=O)O[C@H]2[C@]14C [Picrotin - Picrotoxinin] | 1.22 ± 0.077
C[C@]12Cc3c[nH]nc3C[C@@H]1CC[C@@H]1[C@@H]2CC[C@@]2(C)[C@H]1CC[C@]2(C)O [Stanozolol] | 1.06 ± 0.059
C[N+]1(C)CCCC(OC(=O)C(O)(c2ccccc2)c2ccccc2)C1 (configuration not stated) [Mepenzolate bromide] | 1.08 ± 0.16
CN[C@@H]1C[C@@H](c2ccc(Cl)c(Cl)c2)c2ccccc21 [Indatraline hydrochloride] | 0.742 ± 0.07
C#CCN(C)[C@H](C)Cc1ccccc1 [Selegiline hydrochloride] | 0.995 ± 0.095
C[C@]12CC[C@H]3[C@@H](CCC4=CC(=O)CC[C@@]43C)[C@@H]1CC[C@@H]2O [Testosterone] | 1.03 ± 0.13
C[C@]12C/C(=C/O)C(=O)C[C@@H]1CC[C@@H]1[C@@H]2CC[C@@]2(C)[C@H]1CC[C@]2(C)O [Oxymetholone] | 0.961 ± 0.22
FC(F)(F)c1cccc(N2CCNCC2)c1 [TFMPP hydrochloride] | 0.709 ± 0.17
CN(C)C(=O)Oc1ccc[n+](C)c1 [Pyridostigmine bromide] | 0.849 ± 0.076
Oc1cc(Cl)ccc1Oc1ccc(Cl)cc1Cl [Triclosan] | 0.944 ± 0.11
CCOC(=O)c1cncn1[C@H](C)c1ccccc1 [Etomidate] | 1.07 ± 0.16
CCOC(=O)C1(c2ccccc2)CCN(CCC(C#N)(c2ccccc2)c2ccccc2)CC1 [Diphenoxylate hydrochloride] | 1.05 ± 0.29
CCCCC/C=C\C/C=C\C/C=C\C/C=C\CCCC(=O)Nc1ccc(O)cc1 | 0.926 ± 0.35
CCCCCCCCCOc1ccc2[nH]cc(CCN)c2c1 [5-Nonyloxytryptamine hydrochloride] | 1.3 ± 0.62
COc1ccc(CCN)cc1OC [Homoveratrylamine] | 1.73 ± 0.23
O=C(O)C(Cl)Cl [Dichloroacetic acid] | 1.04 ± 0.13
C[C@]12CC[C@H](O)CC1=CC[C@@H]1[C@@H]2CC[C@@]2(C)[C@H]1CC[C@]2(C)O [Methylandrostenediol] | 1.07 ± 0.48
C=C(C)CN1CC[C@@]23c4c5ccc(O)c4O[C@H]2c2[nH]c4ccccc4c2C[C@]3(O)C1C5 [SDM25N hydrochloride] | 0.98 ± 0.072
c1ccc2c(c1)Nc1ccccc1S2 [Phenothiazine] | 1.42 ± 0.91
CN1CC[C@@H](c2ccc(F)cc2)[C@H](COc2ccc3c(c2)OCO3)C1 [N-Methylparoxetine] | 1.05 ± 0.1
CN1C(=O)CN=C(c2ccccc2)c2cc(Cl)ccc21 [Diazepam] | 1.16 ± 0.55

Some of these compounds in order of molar mass, falling:
Compound | transfection efficiency
CCCCCCCCCOc1ccc2[nH]cc(CCN)c2c1 [5-Nonyloxytryptamine hydrochloride] | 1.3 ± 0.62
C[C@]12CC[C@H]3[C@@H](CCC4=CC(=O)CC[C@@]43C)[C@@H]1CC[C@@H]2O [Testosterone] | 1.03 ± 0.13
FC(F)(F)c1cccc(N2CCNCC2)c1 [TFMPP hydrochloride] | 0.709 ± 0.17
